Publication PMC7360780
No constants are given. Whether binding was seen depends on the method and setting. In cells and extracts the contact can be indirect. Some entries that bind do so weakly or less than the wild type.

Chains of the proteins cited; added tags and fusions are not shown. Lines headed by an entry give the natural chain unless they say otherwise; changes in a name come on top.
UniProt Q13315: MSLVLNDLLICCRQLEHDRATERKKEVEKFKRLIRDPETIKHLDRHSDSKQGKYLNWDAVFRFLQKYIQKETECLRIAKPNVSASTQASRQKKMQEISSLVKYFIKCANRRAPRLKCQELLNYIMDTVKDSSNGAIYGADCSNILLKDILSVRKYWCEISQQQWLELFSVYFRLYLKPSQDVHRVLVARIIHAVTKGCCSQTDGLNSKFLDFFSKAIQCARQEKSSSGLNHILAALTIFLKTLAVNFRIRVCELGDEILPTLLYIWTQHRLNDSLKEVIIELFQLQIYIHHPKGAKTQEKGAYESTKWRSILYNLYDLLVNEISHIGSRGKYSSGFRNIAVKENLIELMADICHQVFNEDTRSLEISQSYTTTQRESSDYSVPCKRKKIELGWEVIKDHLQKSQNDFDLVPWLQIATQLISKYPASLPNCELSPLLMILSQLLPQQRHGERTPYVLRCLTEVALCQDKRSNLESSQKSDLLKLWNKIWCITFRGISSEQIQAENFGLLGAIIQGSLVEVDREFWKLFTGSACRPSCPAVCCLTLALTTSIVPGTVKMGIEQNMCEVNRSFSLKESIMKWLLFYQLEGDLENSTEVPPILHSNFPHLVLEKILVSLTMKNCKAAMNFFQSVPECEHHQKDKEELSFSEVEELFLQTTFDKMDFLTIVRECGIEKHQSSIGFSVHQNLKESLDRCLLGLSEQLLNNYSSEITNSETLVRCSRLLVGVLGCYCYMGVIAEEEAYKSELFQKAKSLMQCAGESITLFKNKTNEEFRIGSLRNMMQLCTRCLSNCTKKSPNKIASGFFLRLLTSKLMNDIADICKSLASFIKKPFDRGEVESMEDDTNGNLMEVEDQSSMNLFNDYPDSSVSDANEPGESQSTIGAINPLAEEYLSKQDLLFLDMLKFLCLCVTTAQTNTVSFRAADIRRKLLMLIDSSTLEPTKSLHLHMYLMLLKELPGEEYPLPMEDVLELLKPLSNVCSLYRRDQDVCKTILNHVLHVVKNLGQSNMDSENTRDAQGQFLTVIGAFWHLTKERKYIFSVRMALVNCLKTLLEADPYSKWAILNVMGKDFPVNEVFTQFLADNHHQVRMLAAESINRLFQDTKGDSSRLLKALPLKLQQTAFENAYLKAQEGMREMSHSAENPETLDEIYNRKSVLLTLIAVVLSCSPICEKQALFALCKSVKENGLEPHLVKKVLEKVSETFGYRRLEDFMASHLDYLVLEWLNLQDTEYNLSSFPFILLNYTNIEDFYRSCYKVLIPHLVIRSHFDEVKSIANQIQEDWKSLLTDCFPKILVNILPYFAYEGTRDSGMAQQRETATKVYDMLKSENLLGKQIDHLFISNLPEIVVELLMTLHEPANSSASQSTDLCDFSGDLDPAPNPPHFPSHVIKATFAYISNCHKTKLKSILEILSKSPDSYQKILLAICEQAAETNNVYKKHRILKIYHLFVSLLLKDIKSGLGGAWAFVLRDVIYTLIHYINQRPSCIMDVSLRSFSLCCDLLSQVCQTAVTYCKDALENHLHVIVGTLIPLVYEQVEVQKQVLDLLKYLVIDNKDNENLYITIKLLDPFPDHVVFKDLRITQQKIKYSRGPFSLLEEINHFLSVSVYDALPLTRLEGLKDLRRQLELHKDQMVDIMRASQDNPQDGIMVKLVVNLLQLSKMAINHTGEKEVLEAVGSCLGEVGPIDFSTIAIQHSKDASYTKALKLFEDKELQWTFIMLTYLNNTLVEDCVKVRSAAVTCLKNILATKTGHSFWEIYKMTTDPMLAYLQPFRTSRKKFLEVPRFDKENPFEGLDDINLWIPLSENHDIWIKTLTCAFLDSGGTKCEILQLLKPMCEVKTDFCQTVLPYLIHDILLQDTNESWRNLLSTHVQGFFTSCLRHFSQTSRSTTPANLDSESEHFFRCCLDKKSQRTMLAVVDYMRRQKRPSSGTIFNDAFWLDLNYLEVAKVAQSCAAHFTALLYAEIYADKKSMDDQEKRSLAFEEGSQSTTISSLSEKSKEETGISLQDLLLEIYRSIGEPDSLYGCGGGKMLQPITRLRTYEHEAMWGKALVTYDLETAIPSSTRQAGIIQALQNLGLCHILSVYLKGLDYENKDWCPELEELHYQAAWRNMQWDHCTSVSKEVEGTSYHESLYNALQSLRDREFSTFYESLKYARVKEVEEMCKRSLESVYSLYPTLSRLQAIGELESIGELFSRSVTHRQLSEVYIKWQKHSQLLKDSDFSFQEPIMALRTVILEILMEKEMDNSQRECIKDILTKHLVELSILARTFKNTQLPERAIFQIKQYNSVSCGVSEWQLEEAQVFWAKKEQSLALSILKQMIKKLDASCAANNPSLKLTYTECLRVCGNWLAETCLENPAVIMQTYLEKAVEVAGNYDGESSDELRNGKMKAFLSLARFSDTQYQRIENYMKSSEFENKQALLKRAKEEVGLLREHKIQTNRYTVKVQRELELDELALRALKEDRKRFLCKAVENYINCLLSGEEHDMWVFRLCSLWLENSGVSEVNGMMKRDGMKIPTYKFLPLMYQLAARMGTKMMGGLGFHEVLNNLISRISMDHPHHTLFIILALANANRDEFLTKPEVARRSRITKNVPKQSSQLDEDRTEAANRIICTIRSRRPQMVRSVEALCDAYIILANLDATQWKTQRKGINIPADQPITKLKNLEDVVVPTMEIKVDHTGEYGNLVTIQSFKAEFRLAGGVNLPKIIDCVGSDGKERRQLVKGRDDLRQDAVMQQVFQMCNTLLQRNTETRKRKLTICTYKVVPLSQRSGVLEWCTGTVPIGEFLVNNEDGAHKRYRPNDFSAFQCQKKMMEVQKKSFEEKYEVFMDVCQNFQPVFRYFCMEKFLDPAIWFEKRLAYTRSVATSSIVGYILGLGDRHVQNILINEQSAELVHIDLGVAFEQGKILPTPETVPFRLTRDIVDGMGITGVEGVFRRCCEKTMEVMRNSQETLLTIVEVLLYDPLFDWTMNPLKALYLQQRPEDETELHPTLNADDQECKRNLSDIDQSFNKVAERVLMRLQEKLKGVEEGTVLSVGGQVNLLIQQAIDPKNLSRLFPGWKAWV
UniProt P49841: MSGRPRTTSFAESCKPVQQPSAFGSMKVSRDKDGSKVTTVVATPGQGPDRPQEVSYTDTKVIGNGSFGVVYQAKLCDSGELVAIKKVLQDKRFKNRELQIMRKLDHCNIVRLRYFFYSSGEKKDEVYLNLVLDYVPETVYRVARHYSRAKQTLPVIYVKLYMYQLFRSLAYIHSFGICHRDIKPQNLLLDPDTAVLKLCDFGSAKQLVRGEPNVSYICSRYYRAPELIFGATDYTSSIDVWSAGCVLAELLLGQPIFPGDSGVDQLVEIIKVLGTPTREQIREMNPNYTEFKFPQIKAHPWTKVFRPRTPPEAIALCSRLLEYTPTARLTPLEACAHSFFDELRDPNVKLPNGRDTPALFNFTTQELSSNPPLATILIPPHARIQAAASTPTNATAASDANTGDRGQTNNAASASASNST
UniProt P62136: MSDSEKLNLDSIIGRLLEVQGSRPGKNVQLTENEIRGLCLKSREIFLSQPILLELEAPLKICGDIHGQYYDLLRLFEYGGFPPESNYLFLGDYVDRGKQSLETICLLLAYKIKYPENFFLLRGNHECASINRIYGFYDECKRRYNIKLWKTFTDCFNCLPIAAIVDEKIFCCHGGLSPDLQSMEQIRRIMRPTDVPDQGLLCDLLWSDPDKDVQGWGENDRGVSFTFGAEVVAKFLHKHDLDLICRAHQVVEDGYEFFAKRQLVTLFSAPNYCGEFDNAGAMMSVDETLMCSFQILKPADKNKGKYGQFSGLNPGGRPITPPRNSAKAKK

Key:
[1] = target: FLAG-tagged ATM (ataxia telangiectasia mutated), wild type (human) (UniProt Q13315); experiment: co-IP; FLAG immunoprecipitation kit from lysates of 293T cells transfected with FLAG-tagged ATM; cells under stress: CPT (1 μM, 24 h), IR (20 Gy, 24 h) or hypoxia (5 h); mutants: IR or hypoxia (KD, S1981A), hypoxia 5 h (R533A, K2117A, K2992A/S2996A)
[2] = target: FLAG-tagged ATM (ataxia telangiectasia mutated), wild type (human) (UniProt Q13315); experiment: co-IP; FLAG immunoprecipitation kit (FLAGIPT1, Sigma) from lysates (Pierce IP Buffer) of 293T cells transfected with FLAG-tagged ATM 48 h before; untreated control cells; blots of the precipitates

| Substance | binding [1] | binding [2] |
| --- | --- | --- |
| Ser9-phosphorylated GSK3β (p-GSK3β) (from UniProt P49841 1-420) | binds weakly | binds |
| glycogen synthase kinase 3β (GSK3β), unphosphorylated (activated) (from UniProt P49841 1-420) | – | binds |
| PP1α (from UniProt P62136 1-330) | no binding | – |
